Reference: US9643952B2, “Pyridone compound” (KYOWA HAKKO KIRIN CO., LTD., priority 2012, dated 2017)
Some entries share one result that the patent states for a list of compounds.

Target: T1, human CCR10 (Homo sapiens, UniProt P46092)
T1 construct: expressed in transfected cells; host or cells: KJMGER8 cells (Namalwa cell-derived cell line); expression induced with 10 nmol/L beta-estradiol for 24 hr
T1 sequence (P46092 1-362): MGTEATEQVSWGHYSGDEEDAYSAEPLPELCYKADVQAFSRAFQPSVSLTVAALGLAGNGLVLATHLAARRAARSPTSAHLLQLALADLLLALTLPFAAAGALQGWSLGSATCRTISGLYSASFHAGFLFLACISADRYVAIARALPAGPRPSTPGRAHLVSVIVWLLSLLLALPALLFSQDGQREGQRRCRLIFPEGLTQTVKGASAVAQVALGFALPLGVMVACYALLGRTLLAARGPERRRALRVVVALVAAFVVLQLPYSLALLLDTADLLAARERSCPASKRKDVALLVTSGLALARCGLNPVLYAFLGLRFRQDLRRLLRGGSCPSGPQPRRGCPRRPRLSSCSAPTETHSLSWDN
Assay: Calcium assay of human CCR10 (CCR10 antagonistic effect, CTACK-induced increase of intracellular calcium ion concentration in hCCR10G16 cells)
Assay type: cell-based
Details: human CCR10-expressing hCCR10G16 cells, 300 nmol/L human recombinant CTACK, Fluo-3, FDSS; read-out: concentration at which the increase in the calcium ion concentration is inhibited by not less than 50%

Compound | IC50 [nM]
Cc1ccc(Cl)cc1Nc1c(C(=O)N2CC(c3ccc(F)cc3)C2)cn(OCCO)c(=O)c1Cl [Compound 233, 3-chloro-4-(5-chloro-2-methylphenylamino)-5-[3-(4-fluorophenyl)azetidine-1-carbonyl]-1-(2-hydroxyethoxyl)pyridin-2(1H)-one] | ≤ 1000
CC(C)(C)OC(=O)Cn1cc(C(=O)N2CCC(c3ccc(F)cc3)CC2)c(NCc2ccccc2)cc1=O [Compound 32, tert-butyl 2-{4-(benzylamino)-5-[4-(4-fluorophenyl)piperidine-1-carbonyl]-2-oxopyridin-1(2H)-yl}acetate] | ≤ 1000
Cc1ccc(Cl)c(Nc2cc(=O)n(CC(=O)N3CCCC3C#N)cc2C(=O)N2CCC(c3ccc(F)cc3)CC2)c1 (stereo not shown) [Compound 20, 1-(2-{4-(2-chloro-5-methylphenylamino)-5-[4-(4-fluorophenyl)piperidine-1-carbonyl]-2-oxopyridin-1(2H)-yl}acetyl)pyrrolidine-2-carbonitrile] | ≤ 1000
COC(=O)Cn1cc(C(=O)N2CCC(c3ccc(F)cc3)CC2)c(Nc2ccc(F)cc2C)cc1=O [Compound 25, methyl 2-{4-(4-fluoro-2-methylphenylamino)-5-[4-(4-fluorophenyl)piperidine-1-carbonyl]-2-oxopyridin-1(2H)-yl}acetate] | ≤ 1000
CC(=O)Nc1c(Nc2ccc3ncsc3c2)c(C(=O)N2CCC(c3ccc(F)cc3)CC2)cn(C)c1=O [Compound 199, N-{4-(benzo[d]thiazol-6-ylamino)-5-[4-(4-fluorophenyl)piperidine-1-carbonyl]-1-methyl-2-oxo-1,2-dihydropyridin-3-yl}acetamide] | ≤ 1000
O=C(c1cn(OCCO)c(=O)c(Cl)c1NC1(c2ccccc2)CC1)N1CCC(c2ccc(F)cc2)CC1 [Compound 231, 3-chloro-5-[4-(4-fluorophenyl)piperidine-1-carbonyl]-1-(2-hydroxyethoxy)-4-(1-phenylcyclopropylamino)pyridin-2(1H)-one] | ≤ 1000
Cc1ccc(Cl)cc1Nc1c(C(=O)N2CCC(c3ccc(F)cc3)CC2)cn(OCC(C)O)c(=O)c1Cl (stereo not shown) [Compound 223, 3-chloro-4-(5-chloro-2-methylphenylamino)-5-[4-(4-fluorophenyl)piperidine-1-carbonyl]-1-(2-hydroxypropoxyl)pyridin-2(1H)-one] | ≤ 1000
Cc1ccc(Cl)c(Nc2cc(=O)n(CC3CCOCC3)cc2C(=O)N2CCC(c3ccc(F)cc3)CC2)c1 [Compound 22, 4-(2-chloro-5-methylphenylamino)-5-[4-(4-fluorophenyl)piperidine-1-carbonyl]-1-[(tetrahydro-2H-pyran-4-yl)methyl]pyridin-2(1H)-one] | ≤ 1000
COCCOn1cc(C(=O)N2CCC(c3ccc(F)cc3)CC2)c(Nc2ccc3scnc3c2)c(Cl)c1=O [Compound 228, 4-(benzo[d]thiazol-5-ylamino)-3-chloro-5-[4-(4-fluorophenyl)piperidine-1-carbonyl]-1-(2-methoxyethoxyl)pyridin-2(1H)-one] | ≤ 1000
Cc1ccc(Cl)c(Nc2cc(=O)n(CC3CC3)cc2C(=O)N2CCC(c3ccc(F)cc3)CC2)c1 [Compound 7, 4-(2-chloro-5-methylphenylamino)-1-(cyclopropylmethyl)-5-[4-(4-fluorophenyl)piperidine-1-carbonyl]pyridin-2(1H)-one] | ≤ 1000

Next, values leading:

IC50 [nM] | Compound
≤ 1000 | Cn1cc(C(=O)N2CCC(c3ccc(F)cc3)CC2)c(Nc2cc(F)c(C#N)cc2F)c(Cl)c1=O [Compound 97, 4-{3-chloro-5-[4-(4-fluorophenyl)piperidine-1-carbonyl]-1-methyl-2-oxo-1,2-dihydropyridin-4-ylamino}-2,5-difluorobenzonitrile]
≤ 1000 | Cc1ccc(Nc2c(C(=O)N3CCC(c4ccc(F)cc4)CC3)cn(C)c(=O)c2Cl)c(F)c1 [Compound 102, 3-chloro-4-(2-fluoro-4-methylphenylamino)-5-[4-(4-fluorophenyl)piperidine-1-carbonyl]-1-methylpyridin-2(1H)-one]
≤ 1000 | Cn1cc(C(=O)N2CCC(c3ccc(F)cc3)CC2)c(Nc2ccc3ncsc3c2)c(F)c1=O [Compound 225, 4-(benzo[d]thiazol-6-ylamino)-3-fluoro-5-[4-(4-fluorophenyl)piperidine-1-carbonyl]-1-methylpyridin-2 (1H)-one]
≤ 1000 | Cn1cc(C(=O)N2CCC(c3ccc(F)cc3)CC2)c(Nc2cc(C#N)ccc2F)c(Cl)c1=O [Compound 148, 3-{3-chloro-5-[4-(4-fluorophenyl)piperidine-1-carbonyl]-1-methyl-2-oxo-1,2-dihydropyridin-4-ylamino}-4-fluorobenzonitrile]
≤ 1000 | COCCn1cc(C(=O)N2CCC(c3ccc(F)cc3)CC2)c(Nc2ccc(Cl)cc2C)c(Cl)c1=O [Compound 141, 3-chloro-4-(4-chloro-2-methylphenylamino)-5-[4-(4-fluorophenyl)piperidine-1-carbonyl]-1-(2-methoxyethyl)pyridin-2(1H)-one]
≤ 1000 | Cc1c(Nc2cc(F)c(F)cc2F)c(C(=O)N2CCC(c3ccc(F)cc3)CC2)cn(C)c1=O [Compound 192, 5-[4-(4-fluorophenyl)piperidine-1-carbonyl]-1,3-dimethyl-4-(2,4,5-trifluorophenylamino)pyridin-2(1H)-one]
≤ 1000 | Cc1cc(F)ccc1Nc1c(C(=O)N2CCC(c3ccc(F)cc3)CC2)cn(C2CC2)c(=O)c1Cl [Compound 50, 3-chloro-1-cyclopropyl-4-(4-fluoro-2-methylphenylamino)-5-[4-(4-fluorophenyl)piperidine-1-carbonyl]pyridin-2(1H)-one]
≤ 1000 | Cc1ccc(Cl)cc1Nc1c(C(=O)N2CCC(c3ccc(F)cc3)CC2)cn(CCF)c(=O)c1Cl [Compound 160, 3-chloro-4-(5-chloro-2-methylphenylamino)-1-(2-fluoroethyl)-5-[4-(4-fluorophenyl)piperidine-1-carbonyl]pyridin-2(1H)-one]
≤ 1000 | Cn1cc(C(=O)N2CCC(c3ccc(F)cc3)CC2)c(Nc2ccc(S(C)(=O)=O)c(C(F)(F)F)c2)c(Cl)c1=O [Compound 122, 3-chloro-5-[4-(4-fluorophenyl)piperidine-1-carbonyl]-1-methyl-4-[4-(methylsulfonyl)-3-(trifluoromethyl)phenylamino]pyridin-2(1H)-one]
≤ 1000 | Cc1ccc(C#N)c(Nc2c(C(=O)N3CCC(c4ccc(F)cc4)CC3)cn(C)c(=O)c2Cl)c1 [Compound 104, 2-{3-chloro-5-[4-(4-fluorophenyl)piperidine-1-carbonyl]-1-methyl-2-oxo-1,2-dihydropyridin-4-ylamino}-4-methylbenzonitrile]
≤ 1000 | Cn1cc(C(=O)N2CCC(c3ccc(F)cc3)CC2)c(Nc2cccc3nonc23)c(Cl)c1=O [Compound 174, 4-(benzo[c][1,2,5]oxadiazol-4-ylamino)-3-chloro-5-[4-(4-fluorophenyl)piperidine-1-carbonyl]-1-methylpyridin-2(1H)-one]
≤ 1000 | COCCn1cc(C(=O)N2CCC(c3ccc(F)cc3)CC2)c(Nc2ccc(F)cc2C)c(Cl)c1=O [Compound 140, 3-chloro-4-(4-fluoro-2-methylphenylamino)-5-[4-(4-fluorophenyl)piperidine-1-carbonyl]-1-(2-methoxyethyl)pyridin-2(1H)-one]
